No constants are given. Whether binding was seen depends on the method and setting. In cells and extracts the contact can be indirect. Some binding calls cover weakened binding; strength is not graded here.
Target: GFP-CtIP (human) (UniProt Q99708)
Assay: co-IP; GFP-Trap_M magnetic beads on 1 mg extract of U2OS cells expressing GFP-CtIP or GFP; 50 mM Tris-HCl pH 7.5, 50 mM NaCl, 1 mM EDTA, 0.2% Triton X-100; overnight at 4 °C; blotted

Amino acid sequences for entries named in this document (tags omitted).
UniProt Q99708: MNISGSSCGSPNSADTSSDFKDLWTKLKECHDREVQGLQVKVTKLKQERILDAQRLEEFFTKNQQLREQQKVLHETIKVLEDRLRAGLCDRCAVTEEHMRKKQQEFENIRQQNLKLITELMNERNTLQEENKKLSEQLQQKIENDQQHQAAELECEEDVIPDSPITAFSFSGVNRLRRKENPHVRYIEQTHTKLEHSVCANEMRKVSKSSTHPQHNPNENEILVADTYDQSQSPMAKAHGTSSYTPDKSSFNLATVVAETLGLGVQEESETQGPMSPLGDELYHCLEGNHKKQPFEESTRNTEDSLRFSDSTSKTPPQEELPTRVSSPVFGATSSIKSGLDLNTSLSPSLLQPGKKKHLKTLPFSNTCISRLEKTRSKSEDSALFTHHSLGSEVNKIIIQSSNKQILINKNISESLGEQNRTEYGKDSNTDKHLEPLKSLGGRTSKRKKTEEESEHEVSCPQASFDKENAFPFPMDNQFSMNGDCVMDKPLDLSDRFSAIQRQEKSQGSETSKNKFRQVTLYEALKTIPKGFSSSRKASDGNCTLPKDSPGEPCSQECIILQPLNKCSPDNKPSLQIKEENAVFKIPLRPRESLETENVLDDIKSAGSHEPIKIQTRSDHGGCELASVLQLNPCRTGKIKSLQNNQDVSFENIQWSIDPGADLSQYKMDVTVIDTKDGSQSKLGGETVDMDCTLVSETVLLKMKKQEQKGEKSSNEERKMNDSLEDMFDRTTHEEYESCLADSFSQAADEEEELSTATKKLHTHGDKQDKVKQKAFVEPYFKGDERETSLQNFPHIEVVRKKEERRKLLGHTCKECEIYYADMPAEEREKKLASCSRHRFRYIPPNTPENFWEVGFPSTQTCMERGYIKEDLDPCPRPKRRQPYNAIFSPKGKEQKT

B1: CBX4 (protein, UniProt O00257 1-560)
chain: MELPAVGEHVFAVESIEKKRIRKGRVEYLVKWRGWSPKYNTWEPEENILDPRLLIAFQNRERQEQLMGYRKRGPKPKPLVVQVPTFARRSNVLTGLQDSSTDNRAKLDLGAQGKGQGHQYELNSKKHHQYQPHSKERAGKPPPPGKSGKYYYQLNSKKHHPYQPDPKMYDLQYQGGHKEAPSPTCPDLGAKSHPPDKWAQGAGAKGYLGAVKPLAGAAGAPGKGSEKGPPNGMMPAPKEAVTGNGIGGKMKIVKNKNKNGRIVIVMSKYMENGMQAVKIKSGEVAEGEARSPSHKKRAADERHPPADRTFKKAAGAEEKKVEAPPKRREEEVSGVSDPQPQDAGSRKLSPTKEAFGEQPLQLTTKPDLLAWDPARNTHPPSHHPHPHPHHHHHHHHHHHHAVGLNLSHVRKRCLSETHGEREPCKKRLTARSISTPTCLGGSPAAERPADLPPAAALPQPEVILLDSDLDEPIDLRCVKTRSEAGEPPSSLQVKPETPASAAVAVAAAAAPTTTAEKPPAEAQDEPAESLSEFKPFFGNIIITDVTANCLTVTFKEYVTV
binding: binds

Source: PMC5524638
